Reference: patent publication US20190367609A1 (INNATE PHARMA, published 2019)
Residue numbers refer to the chain shown, from its start. These are yes or no findings as the source states them, for the method shown. Some binding calls cover weakened binding; strength is not graded here.

Chains of the proteins cited; added tags and fusions are not shown. Lines headed by an entry give the natural chain unless they say otherwise; changes in a name come on top.
UniProt O76036: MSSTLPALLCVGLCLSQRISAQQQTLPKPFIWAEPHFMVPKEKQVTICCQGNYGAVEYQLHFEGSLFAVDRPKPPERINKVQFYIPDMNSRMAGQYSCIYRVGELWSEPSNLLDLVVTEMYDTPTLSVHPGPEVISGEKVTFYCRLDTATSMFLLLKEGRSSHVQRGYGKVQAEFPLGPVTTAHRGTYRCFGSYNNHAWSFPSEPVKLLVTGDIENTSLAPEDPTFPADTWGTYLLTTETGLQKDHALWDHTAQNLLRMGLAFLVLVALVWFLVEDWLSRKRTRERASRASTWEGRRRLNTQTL
UniProt P24161: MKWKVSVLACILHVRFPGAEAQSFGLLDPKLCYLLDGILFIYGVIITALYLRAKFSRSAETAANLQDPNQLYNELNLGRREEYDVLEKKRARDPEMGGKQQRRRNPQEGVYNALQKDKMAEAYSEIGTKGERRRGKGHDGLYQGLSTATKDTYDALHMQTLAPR

B1: 9H11A (antibody, V domains shown)
VH: QVQLQQPGAELVKPGASVKLSCKASGYTFTSYWMHWVKLRPGQGFEWIGEIIPSNGVTNYNEKFKRKATLTVDKSSSTAYMQLSSLTSEDSAVYYCTIRLRYALDYWGQGTSVTVSA
VL: DIQMTQTTSSLSASLGDRVTISCRASQDISNFLNWYQQKPDGTVKLLIYYTSRLHSGVPSRFSGSGSGTDYSLTISNLEQEDIATYFCQQGNTLPPTFGGGTKLEIK
notes: also called CHG1-M-H46 9H11-A
B2: 17E1 (antibody, V domains shown)
VH: QVQLQQPGSVLVRPGASVKLSCKASGYTFTSSWMHWAKQRPGQGLEWIGHIHPNSGISNYNEKFKGKATLTVDTSSSTAYVDLSSLTSEDSAVYYCSRGGRFDDWGAGTTVTVSS
VL: DIQMTQSPSSLSASLGERVSLTCRASQDIGSSLNWLQQEPDGTIKRLIYATSRLDSGVPKRFSGSRSGSDYSLTISSLESEDFVDYYCLQYASSPWTFGGGTKLEIK
notes: also called CHG1-M-H46 17E1
B3: 8B6A (antibody, V domains shown)
VH: QVQLQQPGSELVRPGASVKLSCKASGYTFTSYWMHWVKQRPGQGLEWIGTIYPGSDITNYDEKFKNKATLTVDTSSSTAYMQLSSLTSEDSAVYYCTRDGRFANWGQGTLVTVSA
VL: EIVLTQSPAITAASLGQKVTITCSASSSVSYMHWYQQKSGTSPKPWIYEISKLASGVPARFSGSGSGTSYSLTISSMEAEDAAIYYCQQWNLPLTFGAGTKLELK
notes: Mouse variable domains; light chain is kappa (VK); also called CHG1-M-H46 8B6-A
B4: 9H11B (antibody, V domains shown)
VH: B1 VH
VL: DIVMTQSQKFMSTSVGDRVSVTCKASQNVGTNVAWYQQKPGQSPKALIYSTSFRYSGVPDRFTGSGSGTDFTLTISNVQSEDLAEYFCQQYNSYPFTFGSGTKLEIK
notes: Same heavy chain variable domain as 9H11A with a different light chain; also called CHG1-M-H46 9H11-B
B5: 8B6B (antibody, V domains shown)
VH: B3 VH
VL: B2 VL with D1E, R53S, W96Y
notes: Same heavy chain variable domain as 8B6A with a different light chain; also called CHG1-M-H46 8B6-B

molecular target: Human 6xHis tagged NKp46 recombinant protein (human) (UniProt O76036); assay: HX-MS, NKp46-His and antibody mixed at 20 µM each

binding, binds:
B1
B2
B3

molecular target: chimeric protein of the extracellular portion of human NKp46 fused to the intra-cytoplasmic domain of mouse CD3, on DO.11.10 reporter cells (human; mouse) (UniProt O76036+P24161); assay: flow cytometry primary screen, hybridoma supernatant on DO.11.10 reporter cells, goat anti-mouse pAb-PE

binding, binds:
B1
B4
B2
B3
B5
